This data set in a line: Intrinsic clearance for reactive metabolites formation assessed as summation of [3H]GSH adduct formation rate-based reactive metabolites formation and cytochrome P450 (unknown origin) inactivation rate-based reactive metabolites formation. Conditions: human.

In the case of `COc1cc2c(cc1OC)C(=O)C(CC1CCN(Cc3ccccc3)CC1)C2` (stereo unspecified) [DONEPEZIL], the clearance stood at 0.001 µL/min/mg.

The record behind these values is ChEMBL document CHEMBL3526118, “Combination of GSH trapping and time-dependent inhibition assays as a predictive method of drugs generating highly reactive metabolites” (Drug Metab Dispos, 2011).
